Measured values as given in PubChem BioAssay AID2685 (National Center for Advancing Translational Sciences (NCATS), 2010).
Where “and” joins values, the source holds several entries; their conditions need not be identical. Identical values can stand only once. The list shows a part of the results. Shown are side measurements of this screen, not its main read-out; they come without a call. The list favours compounds with an active or inconclusive main result. Potencies come from curve fits of mixed quality, noted in brackets.

Assay: qHTS Assay for Lipid Storage Modulators in Drosophila S3 Cells;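 on cell number change: cells counted by Cell Tracker Red CMTPX staining in the red channel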
Details: BODIPY lipid droplet fluorescence, 18-24 h; for cell number change: measured here: cell count max response, cells fed with added oleic acid
Outline: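 Drosophila S3 cells got compounds at several concentrations plus oleic acid (400 uM solution). Laser-scanning cytometry with 488 nm excitation read lipid droplets at 500-530 nm and cells at 575-640 nm. Percent activity was relative to 20 uM Triacsin C.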

[1] = measured here: lipid fluorescence (Fed channel) AC50, cells fed with added oleic acid
[2] = measured here: cell number channel AC50, cells fed with added oleic acid

CC(=O)N(c1ccccc1)C(C)c1nc(C#N)c(C#N)nc1C (centres undefined)
cell number change: -22.1%
AC50 [1]: 0.231 µM [falling, full curve, poor fit]

OCCN(CCO)CC(O)COc1ccc(Br)cc1 (centres undefined)
cell number change: -30.2% and -5.12%
AC50 [2]: 1.46 µM [rising, partial curve]

COC(=O)c1sccc1NC(=O)c1csc(C)c1
AC50 [1]: 6.51 µM [rising, single point]

CC(/C=N/N1C(=O)CSC1=S)=C\c1ccccc1
cell number change: 74.8%
AC50 [2]: 23.1 µM [rising, single point]
AC50 [1]: 6.51 µM [falling, single point]

COc1ccccc1OCCn1c(=O)n(C)c2ccccc21
cell number change: -6.77%

CC(=O)c1cccc(N(CC(=O)Nc2ccc(S(=O)(=O)N3CCOCC3)cc2)S(C)(=O)=O)c1
cell number change: -6.74%

COCCNC(=O)C(c1ccc(Cl)cc1)N(Cc1ccco1)C(=O)CCC(=O)Nc1ccccn1 (centres undefined)
cell number change: 4.17%

Cc1ccn2c(=O)nc(SCC(=O)NCc3ccc4c(c3)OCO4)nc2c1
AC50 [2]: 5.17 µM [rising, single point]

CC(=O)CC(=O)NC1C2CC3CC(C2)CC1C3 (centres undefined)
cell number change: -35.7%
AC50 [2]: 0.116 µM [falling, full curve]
AC50 [1]: 0.411 µM [falling, single point]

Cc1cccc(C)c1NC(=O)CN1CCN(CC(=O)c2cc(C)n(C3CC3)c2C)CC1
cell number change: 34.6%
AC50 [1]: 6.51 µM [falling, full curve, poor fit]

CCOC(=O)c1cccc(Nc2ncnc3ccc(C)cc23)c1
cell number change: 89.4%

CC(C)CC(=O)Nc1nnc(S(=O)(=O)Nc2ccccc2)s1
AC50 [1]: 6.51 µM [falling, single point]

COc1cccc(C2CC(c3cccs3)=NN2S(C)(=O)=O)c1 (centres undefined)
cell number change: 23.5%
AC50 [2]: 0.058 µM [rising, full curve, poor fit]

Cc1c(OCc2ccc(C(=O)O)cc2)ccc2c(-c3ccccc3)cc(=O)oc12
cell number change: -13.3%
AC50 [1]: 1.46 µM [falling, single point]

C[C@H](NC(=O)c1ccccc1Cl)C(=O)OC(C(=O)Nc1cc(C(F)(F)F)ccc1Cl)c1ccccc1 (some centres undefined)
cell number change: 87.3%
AC50 [2]: 18.4 µM [rising, single point]

CC(C)Cn1cnc2c(c(-c3ccccc3)c(-c3ccccc3)n2Cc2ccco2)c1=N
cell number change: -18.3%
AC50 [1]: 3.26 µM [rising, single point]

O=C(O)CCSC1CC(=O)N(c2ccccc2)C1=O (centres undefined)
cell number change: -12.7%

Cn1c(Cc2ccccc2)nnc1SCC(=O)NC1CC1
cell number change: 4.05%

C/C(=N\N=C(c1ccccc1)c1ccccc1)c1cccs1
cell number change: 160%
AC50 [2]: 29.1 µM [rising, single point]
AC50 [1]: 23.1 µM [rising, single point]

C=C(C)COc1ccc(-c2nc(N)nc(C)c2Oc2ccccc2OC)c(O)c1
cell number change: -21%

Cc1nc([N+](=O)[O-])cn1CC(O)c1ccc(F)cc1 (centres undefined)
cell number change: -40.2%
AC50 [2]: 8.2 µM [falling, partial curve]
AC50 [1]: 20.6 µM [falling, single point]

CCc1nnc(SCC(=O)Nc2ccccc2)n1CC1CCCO1 (centres undefined)
cell number change: -8.22%
AC50 [1]: 29.1 µM [rising, partial curve, poor fit]

O=C(COc1ncnc2cc([N+](=O)[O-])ccc12)N(CCc1ccccc1)Cc1ccccc1
cell number change: 28.1%

O=C1C(=O)N(CCN2CCOCC2)C(c2ccccn2)/C1=C(/O)c1ccc(F)cc1 (centres undefined)
cell number change: 2.59%

COc1ccc(OC)c(-c2nc(C(=O)NC3CCN(Cc4ccccc4)CC3)cc3c2[nH]c2ccccc23)c1
cell number change: 9.37%

CCN(C(=O)CN1CCN(c2ccc(O)cc2)CC1)c1c(N)n(Cc2ccccc2)c(=O)[nH]c1=O
cell number change: -1.55%
AC50 [1]: 0.184 µM [rising, full curve, poor fit]

COc1ccc(CC(=O)Nc2c3c(nn2C(C)(C)C)CS(=O)C3)cc1 (centres undefined)
cell number change: 13.3%
AC50 [1]: 23.1 µM [rising, single point]

CCN1CCN(c2ccc(S(=O)(=O)N3CCCCC3)cc2NC(=O)COc2ccc(Cl)c(C)c2)CC1
cell number change: 23%
AC50 [1]: 6.51 µM [rising, single point]

CCn1c(C(=O)N2CCC(C(=O)NCCCSC3CCCCC3)CC2)cc2sccc21
cell number change: -48.2%
AC50 [2]: 29.1 µM [falling, partial curve]
AC50 [1]: 25.9 µM [falling, partial curve]

Cc1cc(C(=O)CC#N)c(C)n1-c1c(C)n(C)n(-c2ccccc2)c1=O
cell number change: 59.9%
AC50 [2]: 29.1 µM [rising, single point]
AC50 [1]: 29.1 µM [rising, single point]

CC1(C)Oc2ccc3ccc(=O)oc3c2/C(=C/O)C1=O
cell number change: -2.75%
AC50 [1]: 23.1 µM [rising, single point]

Cc1cc(C)c[n+](CC(=O)c2ccccc2)c1
cell number change: 18.9%
AC50 [1]: 29.1 µM [rising, single point]

Cc1nc(N)nc(N/N=C/c2ccccc2)n1
cell number change: 1.52%
AC50 [1]: 0.0206 µM [rising, full curve, poor fit]

CC1(C)CN(c2ccc(Br)cc2Br)C1=O
cell number change: -23.2%

Cc1cc(Cl)ccc1NC(=S)NCCCO
cell number change: 26.4%
AC50 [2]: 0.116 µM [rising, full curve, poor fit]
AC50 [1]: 29.1 µM [rising, partial curve, poor fit]

O=C(Cc1ccc2c(c1)OCCO2)N1CCN(S(=O)(=O)c2cccc(Cl)c2Cl)CC1
cell number change: 8.52%

OCCN(CC#CC(O)(c1ccccc1)c1ccccc1)CCO
cell number change: 24.4%

COc1ccccc1-c1cn[nH]c1-c1ccc(O)cc1O
cell number change: -22.7%

CCOc1ccc(C(=O)O)cn1
cell number change: -14.1%
AC50 [1]: 14.6 µM [falling, single point]

O=C(COc1cccnc1[N+](=O)[O-])Nc1ccc(N2CCOCC2)cc1
cell number change: -27.4%
AC50 [1]: 6.51 µM [falling, single point]

O=c1oc(-c2cccs2)nc2sc3c(c12)CCCC3
cell number change: 16.7%
AC50 [1]: 0.82 µM [falling, single point]

CCCCNc1ccc(C(CC(N)=O)NC(=O)Cc2ccc(Br)cc2)cc1[N+](=O)[O-] (centres undefined)
cell number change: -7.16%
AC50 [1]: 0.58 µM [falling, full curve, poor fit]
